Experimental data from publication doi:10.1101/2024.05.10.593562 (bioRxiv, 2024).
No constants are given. Whether binding was seen depends on the method and setting. Some binding calls cover weakened binding; strength is not graded here. Sequences can lack the tags named with a protein.

Amino acid sequences for entries named in this document (tags omitted). Residues count along the entry.
UniProt Q13547: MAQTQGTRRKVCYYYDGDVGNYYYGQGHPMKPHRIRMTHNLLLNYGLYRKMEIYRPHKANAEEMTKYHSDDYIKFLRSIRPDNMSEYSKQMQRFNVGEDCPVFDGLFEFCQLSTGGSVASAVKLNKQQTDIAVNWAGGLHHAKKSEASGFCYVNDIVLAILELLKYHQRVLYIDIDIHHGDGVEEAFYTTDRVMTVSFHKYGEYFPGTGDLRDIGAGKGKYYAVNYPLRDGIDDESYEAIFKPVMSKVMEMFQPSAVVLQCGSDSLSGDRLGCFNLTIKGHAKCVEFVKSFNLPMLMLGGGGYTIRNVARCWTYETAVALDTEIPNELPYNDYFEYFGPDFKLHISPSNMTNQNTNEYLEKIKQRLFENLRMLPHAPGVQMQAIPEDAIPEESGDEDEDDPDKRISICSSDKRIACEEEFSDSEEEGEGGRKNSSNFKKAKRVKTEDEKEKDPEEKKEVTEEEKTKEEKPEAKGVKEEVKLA
UniProt P03129, residues 1-97: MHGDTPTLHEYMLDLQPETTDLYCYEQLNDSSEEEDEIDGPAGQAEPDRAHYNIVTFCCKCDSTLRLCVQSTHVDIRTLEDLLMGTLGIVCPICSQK

Target: T1, GST-Rb 379-928 (UniProt P06400)
T1 sequence: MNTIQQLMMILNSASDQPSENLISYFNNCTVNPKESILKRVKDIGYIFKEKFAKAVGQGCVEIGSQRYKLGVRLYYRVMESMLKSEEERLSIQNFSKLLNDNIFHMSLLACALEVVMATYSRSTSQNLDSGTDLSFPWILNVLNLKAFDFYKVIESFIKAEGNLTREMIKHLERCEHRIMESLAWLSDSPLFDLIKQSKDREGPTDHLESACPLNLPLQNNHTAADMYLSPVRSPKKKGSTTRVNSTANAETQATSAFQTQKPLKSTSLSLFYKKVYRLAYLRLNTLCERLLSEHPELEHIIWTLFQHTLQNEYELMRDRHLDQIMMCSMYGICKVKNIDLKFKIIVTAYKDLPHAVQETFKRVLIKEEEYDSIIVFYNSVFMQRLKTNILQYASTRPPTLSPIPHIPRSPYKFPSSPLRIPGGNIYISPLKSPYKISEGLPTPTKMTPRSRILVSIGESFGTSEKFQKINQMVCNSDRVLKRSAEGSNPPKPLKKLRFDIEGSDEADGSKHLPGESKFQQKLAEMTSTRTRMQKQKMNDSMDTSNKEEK
Experiment: AlphaScreen or HTRF

Row | Substance | binding
1 | HDAC1-FLAG (from UniProt Q13547 1-482) (enzyme) | binds
2 | HIS-E7 1-97 (from UniProt P03129 1-97) | binds
